pEC50: −log10 of the molar value. Where two headings read alike, the source gives them in different places. For at least one compound, name, drawing or mass did not settle the structure.
Columns and labels:
[1] = molecular target: T1, hGIPR (Homo sapiens, UniProt P48546); experiment: hGIPR CreLuc reporter gene assay in 0.5% and 100% plasma; assay type: cell-based
T1 construct: expressed in transfected cells; host or cells: CHO cells carrying a CRE-luciferase reporter gene
T1 sequence (P48546 22-466): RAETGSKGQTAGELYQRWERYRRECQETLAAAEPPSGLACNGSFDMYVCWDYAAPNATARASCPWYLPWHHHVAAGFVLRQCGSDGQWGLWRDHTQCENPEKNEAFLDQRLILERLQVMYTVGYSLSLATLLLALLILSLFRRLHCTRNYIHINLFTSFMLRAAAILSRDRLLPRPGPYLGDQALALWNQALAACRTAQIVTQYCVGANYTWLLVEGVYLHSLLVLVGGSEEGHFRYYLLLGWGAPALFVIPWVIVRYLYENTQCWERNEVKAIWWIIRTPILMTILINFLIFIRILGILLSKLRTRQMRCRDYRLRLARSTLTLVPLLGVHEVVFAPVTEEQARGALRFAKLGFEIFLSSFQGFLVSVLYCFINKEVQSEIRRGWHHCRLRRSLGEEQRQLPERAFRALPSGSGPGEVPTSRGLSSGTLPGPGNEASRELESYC
From the text: (§1) Example 1: hGLPR/hGIPR/hNPY2R CreLuc Assay in 0.5% and 100% Plasma
(§2) CHO and HEK-293 recombinant cell lines express a luciferase reporter gene under control of the cAMP responsive element (CRE). As a second recombinant protein the GLP-1 and NPY2 receptors were expressed in the reporter gene HEK cells, and the GIP receptor was expressed in the reporter gene CHO cells, respectively. Stimulation of these recombinant cells with an agonist leads to an increase of intracellular cAMP levels. In the presence of cAMP, the transcription factor CRE binding protein (CREB) binds to the CRE and to the CREB binding protein (CBP), which leads to transcription of the luciferase reporter gene. Peptides upon serial-dilution in 100% DMSO were transferred into 384-well assay plates with 5 μl pre-dispensed assay buffer (1×HBSS, 20 mM HEPES, pH7.4 supplemented with 0.5% human plasma) using acoustic dispensing on a Labcyte ECHO. Cryo-preserved transgenic reporter gene cells were thawed in assay buffer. 20 μl (10.000 cells/well) were added to the plate with the peptides and incubated for 4 hours at 37° C. in a humidified incubator. Following incubation, assay plates are equilibrated to room temperature, followed by addition of 25 μl of Bright-GIo™ Luciferase reagent, incubation at room temperature for 10 minutes and analysis of luminescence (Envision Reader). Concentration response evaluation of compounds was performed with 8 concentrations of peptides (covering four decades). EC50 values were calculated by non-linear regression using sigmoid concentration-response with variable slope. The same assays were run in the presence of 100% plasma with no additional buffer constituents.

Chains of the proteins cited; added tags and fusions are not shown. Residues count along the entry.
UniProt P43220, 24-463: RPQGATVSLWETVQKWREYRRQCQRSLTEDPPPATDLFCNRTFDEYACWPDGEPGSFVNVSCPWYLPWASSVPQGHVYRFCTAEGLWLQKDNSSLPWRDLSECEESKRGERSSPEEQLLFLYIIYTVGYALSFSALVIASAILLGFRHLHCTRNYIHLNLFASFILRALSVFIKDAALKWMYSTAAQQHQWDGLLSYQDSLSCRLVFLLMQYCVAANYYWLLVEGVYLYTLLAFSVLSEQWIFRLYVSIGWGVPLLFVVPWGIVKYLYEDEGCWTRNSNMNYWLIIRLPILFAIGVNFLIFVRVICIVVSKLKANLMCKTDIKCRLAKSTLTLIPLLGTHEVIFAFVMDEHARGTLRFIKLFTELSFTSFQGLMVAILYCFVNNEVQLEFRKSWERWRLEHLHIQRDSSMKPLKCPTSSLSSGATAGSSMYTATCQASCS

[2] = molecular target: T2, hGLP1R (Homo sapiens, UniProt P43220); experiment: hGLP1R CreLuc reporter gene assay in 0.5% and 100% plasma; assay type: cell-based; settings: read-out: hGLP1R 0.5% hP, 0.5% human plasma
T2 construct: expressed in transfected cells; host or cells: HEK-293 cells carrying a CRE-luciferase reporter gene
From the text: as §1
as §2, with “20 μl (10.000 cells/well) were added to the plate with the peptides and incubated for 4 hours at 37° C. in a humidified incubator.” left out, “Concentration response evaluation of compounds was performed with 8 concentrations of peptides (covering four decades).” left out, “The same assays were run in the presence of 100% plasma with no additional buffer constituents.” left out

[3] = read-out: hGIPR 0.5% hP, 0.5% human plasma

SMILES | pEC50 [1, 3] | pEC50 [2] | pEC50 ([1]; read-out: hGIPR 100% hP, 100% human plasma)
CC[C@H](C)[C@H](NC(=O)[C@H](CC(C)C)NC(=O)[C@H](Cc1c[nH]c2ccccc12)NC(=O)[C@H](CCC(N)=O)NC(=O)[C@@H](NC(=O)[C@H](Cc1ccccc1)NC(=O)[C@H](C)NC(=O)C(C)(C)NC(=O)[C@H](CCC(N)=O)NC(=O)[C@H](C)NC(=O)[C@H](CCC(N)=O)NC(=O)[C@H](CCCCN)NC(=O)[C@H](CCC(=O)O)NC(=O)[C@H](CC(C)C)NC(=O)C(C)(C)NC(=O)[C@@H](NC(=O)[C@H](CO)NC(=O)[C@H](CC(C)C)NC(=O)[C@H](CC(=O)O)NC(=O)[C@H](CO)NC(=O)[C@@H](NC(=O)[C@H](Cc1ccccc1)NC(=O)[C@@H](NC(=O)CNC(=O)[C@H](CCC(=O)O)NC(=O)C(C)(C)NC(=O)[C@@H](N)Cc1ccc(O)cc1)[C@@H](C)O)[C@@H](C)O)[C@@H](C)CC)C(C)C)C(=O)N[C@@H](CCCCNC(=O)[C@@H](N)CCCCNC(=O)CC[C@H](NC(=O)CC[C@H](NC(=O)[C@H](CCC(=O)O)NC(=O)CC[C@H](NC(=O)CC[C@H](NC(=O)CC[C@H](NC(=O)CCCCCCCCCCCCCCCCCCC(=O)O)C(=O)O)C(=O)O)C(=O)O)C(=O)O)C(=O)O)C(=O)NCC(=O)NCC(=O)N1CCC[C@H]1C(=O)N[C@@H](CO)C(=O)N[C@@H](CCC(=O)O)C(=O)NCC(=O)N[C@@H](C)C(=O)N[C@@H](CO)C(=O)N[C@@H](CC(C)C)C(=O)N[C@@H](CCCNC(=N)N)C(=O)N[C@@H](Cc1c[nH]cn1)C(=O)N[C@@H](Cc1ccc(O)cc1)C(=O)N[C@@H](Cc1ccc(O)cc1)C(=O)N[C@@H](CC(N)=O)C(=O)N[C@@H](Cc1c[nH]c2ccccc12)C(=O)N[C@@H](CC(C)C)C(=O)N[C@H](C(=O)N[C@@H](CCCNC(=N)N)C(=O)N[C@@H](CCC(N)=O)C(=O)N[C@@H](CCCNC(=N)N)C(=O)N[C@@H](Cc1ccc(O)cc1)C(N)=O)[C@@H](C)O [Compound 113, Y-Aib-E-G-T-F-T-S-D-L-S-I-Aib-L-E-K-Q-A-Q-Aib-A-F-V-Q-W-L-I-K(1,3)-GGPSEGASLRHYYNWLTRQRY-NH2.C20DA-gGlu-gGlu-gGlu-Glu-gGlu-gGlu-eLys(1,2)] | 9.25 | 9.72 | –
CC[C@H](C)[C@H](NC(=O)[C@H](CC(C)C)NC(=O)[C@H](Cc1c[nH]c2ccccc12)NC(=O)[C@H](CCC(=O)O)NC(=O)[C@@H](NC(=O)[C@H](Cc1ccccc1)NC(=O)[C@H](C)NC(=O)C(C)(C)NC(=O)[C@H](CCC(N)=O)NC(=O)[C@H](C)NC(=O)[C@H](CCC(N)=O)NC(=O)[C@H](CCCCN)NC(=O)[C@H](CCC(=O)O)NC(=O)[C@H](CC(C)C)NC(=O)C(C)(C)NC(=O)[C@@H](NC(=O)[C@H](CO)NC(=O)[C@H](CC(C)C)NC(=O)[C@H](CC(=O)O)NC(=O)[C@H](CO)NC(=O)[C@@H](NC(=O)[C@H](Cc1ccccc1)NC(=O)[C@@H](NC(=O)CNC(=O)[C@H](CCC(=O)O)NC(=O)C(C)(C)NC(=O)[C@@H](N)Cc1ccc(O)cc1)[C@@H](C)O)[C@@H](C)O)[C@@H](C)CC)C(C)C)C(=O)N[C@@H](CCCCNC(=O)[C@@H](N)CCCCNC(=O)CC[C@H](NC(=O)[C@H](CCC(=O)O)NC(=O)CC[C@H](NC(=O)CC[C@H](NC(=O)CC[C@H](NC(=O)CC[C@H](NC(=O)CCCCCCCCCCCCCCCCCCC(=O)O)C(=O)O)C(=O)O)C(=O)O)C(=O)O)C(=O)O)C(=O)NCC(=O)NCC(=O)N1CCC[C@H]1C(=O)N[C@@H](CO)C(=O)N[C@@H](CCC(=O)O)C(=O)NCC(=O)N[C@@H](C)C(=O)N[C@@H](CO)C(=O)N[C@@H](CC(C)C)C(=O)N[C@@H](CCCNC(=N)N)C(=O)N[C@@H](Cc1c[nH]cn1)C(=O)N[C@@H](Cc1ccc(O)cc1)C(=O)N[C@@H](Cc1ccc(O)cc1)C(=O)N[C@@H](CC(N)=O)C(=O)N[C@@H](Cc1c[nH]c2ccccc12)C(=O)N[C@@H](CC(C)C)C(=O)N[C@H](C(=O)N[C@@H](CCCNC(=N)N)C(=O)N[C@@H](CCC(N)=O)C(=O)N[C@@H](CCCNC(=N)N)C(=O)N[C@@H](Cc1ccc(O)cc1)C(N)=O)[C@@H](C)O [Compound 234, Y-Aib-E-G-T-F-T-S-D-L-S-I-Aib-L-E-K-Q-A-Q-Aib-A-F-V-E-W-L-I-K(1,3)-GGPSEGASLRHYYNWLTRQRY-NH2.C20DA-gGlu-gGlu-gGlu-gGlu-Glu-gGlu-eLys(1,2)] | 9.13 | 9.46 | 8.49
